# ± gives the standard deviation of the averaged measurements. The entries are a selection whose mix differs from that of the whole data set.
# Protein sequences, listed by entry. Tags and fused reporters are not part of them. Lines headed by an entry give the natural chain unless they say otherwise; changes in a name come on top.
# UniProt Q13443: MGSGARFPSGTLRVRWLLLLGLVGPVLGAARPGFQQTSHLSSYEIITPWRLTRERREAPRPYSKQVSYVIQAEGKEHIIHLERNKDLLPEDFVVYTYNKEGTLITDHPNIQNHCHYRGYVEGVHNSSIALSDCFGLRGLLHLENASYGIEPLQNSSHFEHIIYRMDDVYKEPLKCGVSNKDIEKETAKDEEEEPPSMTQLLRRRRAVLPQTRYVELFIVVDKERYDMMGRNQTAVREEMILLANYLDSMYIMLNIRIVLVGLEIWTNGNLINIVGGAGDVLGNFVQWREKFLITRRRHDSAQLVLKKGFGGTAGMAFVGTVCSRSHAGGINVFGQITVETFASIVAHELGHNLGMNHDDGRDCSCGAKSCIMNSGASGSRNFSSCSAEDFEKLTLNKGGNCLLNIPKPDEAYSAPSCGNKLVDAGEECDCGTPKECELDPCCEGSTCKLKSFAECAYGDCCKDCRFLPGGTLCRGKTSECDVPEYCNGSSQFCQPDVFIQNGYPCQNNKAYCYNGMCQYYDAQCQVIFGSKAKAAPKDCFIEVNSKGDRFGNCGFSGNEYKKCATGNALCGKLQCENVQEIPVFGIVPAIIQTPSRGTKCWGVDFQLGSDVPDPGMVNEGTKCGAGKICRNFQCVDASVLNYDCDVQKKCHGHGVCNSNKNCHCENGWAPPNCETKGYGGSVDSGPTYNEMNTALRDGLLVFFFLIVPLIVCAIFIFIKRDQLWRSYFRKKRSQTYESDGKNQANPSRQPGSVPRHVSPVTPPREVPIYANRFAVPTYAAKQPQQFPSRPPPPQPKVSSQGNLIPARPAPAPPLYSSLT
# UniProt Q13416: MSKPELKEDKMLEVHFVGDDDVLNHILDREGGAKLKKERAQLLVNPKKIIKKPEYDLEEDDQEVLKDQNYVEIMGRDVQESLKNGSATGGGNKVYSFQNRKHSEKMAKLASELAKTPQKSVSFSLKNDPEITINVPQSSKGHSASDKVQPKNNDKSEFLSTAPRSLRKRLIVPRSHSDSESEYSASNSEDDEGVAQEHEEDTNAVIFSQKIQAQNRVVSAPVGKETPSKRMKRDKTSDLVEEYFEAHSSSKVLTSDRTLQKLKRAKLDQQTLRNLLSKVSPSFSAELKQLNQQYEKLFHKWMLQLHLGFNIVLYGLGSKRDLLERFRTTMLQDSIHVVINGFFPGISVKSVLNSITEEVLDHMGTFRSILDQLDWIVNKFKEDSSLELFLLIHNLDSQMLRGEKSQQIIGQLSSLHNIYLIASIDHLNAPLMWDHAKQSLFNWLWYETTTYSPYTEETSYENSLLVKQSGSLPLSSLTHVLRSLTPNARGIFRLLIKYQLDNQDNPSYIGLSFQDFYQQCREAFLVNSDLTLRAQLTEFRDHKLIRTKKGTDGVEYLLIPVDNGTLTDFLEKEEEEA
# UniProt Q14247: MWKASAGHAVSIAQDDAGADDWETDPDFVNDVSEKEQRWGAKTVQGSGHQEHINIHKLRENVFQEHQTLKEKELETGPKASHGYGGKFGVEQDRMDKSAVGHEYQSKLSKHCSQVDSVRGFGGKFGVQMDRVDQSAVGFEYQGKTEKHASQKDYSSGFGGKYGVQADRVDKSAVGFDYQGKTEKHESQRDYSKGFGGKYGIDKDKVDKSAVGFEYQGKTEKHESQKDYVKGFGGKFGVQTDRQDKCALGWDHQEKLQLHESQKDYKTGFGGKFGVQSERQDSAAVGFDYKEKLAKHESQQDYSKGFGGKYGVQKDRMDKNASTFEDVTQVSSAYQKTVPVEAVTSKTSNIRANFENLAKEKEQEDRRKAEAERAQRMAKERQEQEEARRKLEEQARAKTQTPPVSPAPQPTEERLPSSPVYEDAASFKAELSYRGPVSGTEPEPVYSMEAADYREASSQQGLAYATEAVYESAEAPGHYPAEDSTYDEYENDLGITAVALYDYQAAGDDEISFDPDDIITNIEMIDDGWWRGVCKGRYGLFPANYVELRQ
# UniProt Q14498: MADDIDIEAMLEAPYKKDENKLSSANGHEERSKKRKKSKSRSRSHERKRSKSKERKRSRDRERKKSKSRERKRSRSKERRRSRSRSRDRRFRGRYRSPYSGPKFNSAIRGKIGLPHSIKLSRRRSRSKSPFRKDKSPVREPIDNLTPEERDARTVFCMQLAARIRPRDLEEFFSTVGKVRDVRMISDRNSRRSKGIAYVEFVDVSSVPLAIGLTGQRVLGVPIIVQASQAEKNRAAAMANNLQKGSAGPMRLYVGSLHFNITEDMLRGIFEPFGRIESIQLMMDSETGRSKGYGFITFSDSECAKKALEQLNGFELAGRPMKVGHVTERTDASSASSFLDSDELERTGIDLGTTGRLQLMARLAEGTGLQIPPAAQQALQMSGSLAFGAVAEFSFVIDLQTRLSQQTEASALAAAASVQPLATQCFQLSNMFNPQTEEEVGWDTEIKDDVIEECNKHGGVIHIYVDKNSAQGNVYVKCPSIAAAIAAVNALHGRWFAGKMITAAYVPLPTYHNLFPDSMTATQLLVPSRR
# UniProt Q13177, whole entry: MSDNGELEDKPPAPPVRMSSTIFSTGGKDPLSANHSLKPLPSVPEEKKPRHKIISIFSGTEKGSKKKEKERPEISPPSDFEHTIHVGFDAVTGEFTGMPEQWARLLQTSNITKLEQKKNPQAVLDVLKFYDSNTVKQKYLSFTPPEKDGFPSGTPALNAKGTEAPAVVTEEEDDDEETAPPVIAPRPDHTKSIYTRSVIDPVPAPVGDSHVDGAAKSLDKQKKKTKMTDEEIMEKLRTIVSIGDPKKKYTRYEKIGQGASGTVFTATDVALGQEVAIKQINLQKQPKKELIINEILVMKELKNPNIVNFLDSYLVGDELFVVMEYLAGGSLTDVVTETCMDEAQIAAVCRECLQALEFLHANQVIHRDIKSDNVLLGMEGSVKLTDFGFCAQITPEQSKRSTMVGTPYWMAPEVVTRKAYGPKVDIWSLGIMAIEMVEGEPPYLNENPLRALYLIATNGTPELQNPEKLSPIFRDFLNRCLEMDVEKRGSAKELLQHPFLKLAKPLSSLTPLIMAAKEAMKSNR
# UniProt Q15036: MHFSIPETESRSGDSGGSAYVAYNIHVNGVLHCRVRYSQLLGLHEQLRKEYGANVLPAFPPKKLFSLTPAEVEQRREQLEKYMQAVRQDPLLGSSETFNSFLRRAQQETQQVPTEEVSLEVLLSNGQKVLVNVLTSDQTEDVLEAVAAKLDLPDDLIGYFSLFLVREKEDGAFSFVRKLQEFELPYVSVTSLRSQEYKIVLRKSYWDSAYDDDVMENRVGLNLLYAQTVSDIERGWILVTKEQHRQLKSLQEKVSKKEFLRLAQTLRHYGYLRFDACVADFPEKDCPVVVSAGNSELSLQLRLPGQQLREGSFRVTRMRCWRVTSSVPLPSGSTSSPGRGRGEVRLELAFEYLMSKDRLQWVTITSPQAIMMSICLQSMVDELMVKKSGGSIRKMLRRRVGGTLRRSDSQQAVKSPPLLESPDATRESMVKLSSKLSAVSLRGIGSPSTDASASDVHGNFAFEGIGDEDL
# UniProt Q13347, whole entry: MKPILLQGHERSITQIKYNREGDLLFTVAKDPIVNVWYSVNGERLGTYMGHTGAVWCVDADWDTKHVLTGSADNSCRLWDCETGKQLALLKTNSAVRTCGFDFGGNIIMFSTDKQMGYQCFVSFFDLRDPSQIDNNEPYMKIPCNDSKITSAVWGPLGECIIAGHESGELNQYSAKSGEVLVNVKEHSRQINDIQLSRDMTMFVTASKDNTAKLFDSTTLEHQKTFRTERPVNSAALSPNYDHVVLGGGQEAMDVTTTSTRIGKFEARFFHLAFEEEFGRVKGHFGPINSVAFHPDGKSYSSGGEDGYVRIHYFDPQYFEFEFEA
# UniProt Q14865: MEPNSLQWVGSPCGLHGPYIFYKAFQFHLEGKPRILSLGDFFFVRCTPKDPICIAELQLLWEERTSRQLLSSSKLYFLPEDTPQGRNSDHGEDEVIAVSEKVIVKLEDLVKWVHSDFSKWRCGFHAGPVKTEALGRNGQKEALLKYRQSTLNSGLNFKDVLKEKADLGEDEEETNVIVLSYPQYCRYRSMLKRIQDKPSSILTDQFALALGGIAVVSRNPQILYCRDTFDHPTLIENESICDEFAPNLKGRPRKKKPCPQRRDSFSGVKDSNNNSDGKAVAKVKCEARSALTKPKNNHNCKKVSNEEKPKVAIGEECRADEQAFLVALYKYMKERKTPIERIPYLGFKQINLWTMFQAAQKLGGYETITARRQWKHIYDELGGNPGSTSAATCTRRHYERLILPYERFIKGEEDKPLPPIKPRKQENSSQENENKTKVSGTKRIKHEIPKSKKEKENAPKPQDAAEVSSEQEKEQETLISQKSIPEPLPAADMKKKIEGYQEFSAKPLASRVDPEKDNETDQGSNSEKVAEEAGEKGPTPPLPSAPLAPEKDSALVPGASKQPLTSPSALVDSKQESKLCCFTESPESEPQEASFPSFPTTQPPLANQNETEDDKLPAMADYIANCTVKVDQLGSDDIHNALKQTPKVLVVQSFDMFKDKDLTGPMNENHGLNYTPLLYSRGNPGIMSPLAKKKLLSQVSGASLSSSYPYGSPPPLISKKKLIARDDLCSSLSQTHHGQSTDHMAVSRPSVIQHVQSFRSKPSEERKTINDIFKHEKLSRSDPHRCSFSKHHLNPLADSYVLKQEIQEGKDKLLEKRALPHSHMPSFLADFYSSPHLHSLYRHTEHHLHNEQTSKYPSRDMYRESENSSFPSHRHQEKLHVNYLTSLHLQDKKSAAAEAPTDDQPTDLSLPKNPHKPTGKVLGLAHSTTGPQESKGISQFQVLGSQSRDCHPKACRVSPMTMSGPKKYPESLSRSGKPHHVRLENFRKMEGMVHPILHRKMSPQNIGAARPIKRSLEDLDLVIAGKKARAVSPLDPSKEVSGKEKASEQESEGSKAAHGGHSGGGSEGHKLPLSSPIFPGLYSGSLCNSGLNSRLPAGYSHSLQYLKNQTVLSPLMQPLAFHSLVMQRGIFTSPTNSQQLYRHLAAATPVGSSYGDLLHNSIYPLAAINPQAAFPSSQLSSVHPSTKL
# UniProt Q13546: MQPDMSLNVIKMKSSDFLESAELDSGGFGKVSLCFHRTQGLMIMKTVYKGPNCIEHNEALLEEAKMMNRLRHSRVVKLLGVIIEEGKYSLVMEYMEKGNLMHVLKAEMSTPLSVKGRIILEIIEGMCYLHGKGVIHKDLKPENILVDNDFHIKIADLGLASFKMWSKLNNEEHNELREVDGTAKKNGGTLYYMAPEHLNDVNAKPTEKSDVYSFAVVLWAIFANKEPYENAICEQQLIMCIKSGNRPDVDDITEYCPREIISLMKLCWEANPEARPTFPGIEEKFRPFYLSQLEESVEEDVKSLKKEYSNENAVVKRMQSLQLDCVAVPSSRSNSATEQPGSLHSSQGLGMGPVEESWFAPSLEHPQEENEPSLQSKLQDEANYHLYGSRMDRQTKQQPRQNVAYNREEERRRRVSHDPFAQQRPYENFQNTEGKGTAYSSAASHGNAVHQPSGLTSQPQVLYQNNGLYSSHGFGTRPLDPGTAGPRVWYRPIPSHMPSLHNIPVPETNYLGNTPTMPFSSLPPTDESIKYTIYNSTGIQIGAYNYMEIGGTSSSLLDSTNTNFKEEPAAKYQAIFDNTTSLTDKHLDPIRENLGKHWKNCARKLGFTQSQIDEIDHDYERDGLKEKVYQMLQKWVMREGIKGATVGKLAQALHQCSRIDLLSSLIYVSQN
# UniProt Q15057: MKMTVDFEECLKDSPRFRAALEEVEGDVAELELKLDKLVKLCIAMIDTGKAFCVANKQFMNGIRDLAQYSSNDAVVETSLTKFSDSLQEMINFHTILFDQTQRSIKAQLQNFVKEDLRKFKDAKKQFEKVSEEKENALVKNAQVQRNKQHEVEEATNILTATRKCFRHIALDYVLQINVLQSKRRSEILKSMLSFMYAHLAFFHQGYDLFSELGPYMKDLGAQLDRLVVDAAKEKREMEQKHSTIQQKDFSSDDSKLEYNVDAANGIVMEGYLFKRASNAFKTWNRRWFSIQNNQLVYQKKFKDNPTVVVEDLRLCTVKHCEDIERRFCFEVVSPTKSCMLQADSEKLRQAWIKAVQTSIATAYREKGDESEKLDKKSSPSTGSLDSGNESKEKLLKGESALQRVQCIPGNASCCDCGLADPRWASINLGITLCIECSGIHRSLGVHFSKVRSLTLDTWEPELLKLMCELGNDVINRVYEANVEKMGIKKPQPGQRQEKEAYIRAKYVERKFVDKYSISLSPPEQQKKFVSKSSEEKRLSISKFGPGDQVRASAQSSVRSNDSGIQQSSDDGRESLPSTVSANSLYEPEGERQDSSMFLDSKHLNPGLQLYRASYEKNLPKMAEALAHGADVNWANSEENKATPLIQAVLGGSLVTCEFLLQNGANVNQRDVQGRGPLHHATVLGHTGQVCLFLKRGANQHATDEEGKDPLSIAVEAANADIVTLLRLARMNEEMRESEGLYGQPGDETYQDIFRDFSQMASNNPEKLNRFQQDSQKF
# Compound: Nc1ncnc2c1ncn2[C@@H]1O[C@H](COP(=O)(O)OP(=O)(O)NP(=O)(O)O)[C@@H](O)[C@H]1O [adenylyl imidodiphosphate]
# Experiment: NP40-soluble protein abundance relative to vehicle (solubility fold change) (ratio); higher = more soluble protein in presence of AMP-PNP
# Outline: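 Across three independent experiments, values are fold changes against the detergent-processed vehicle for each replicate, based on vsn-normalised intensities. The samples were Jurkat crude lysate treated with eight concentrations (0.1 to 10 mM) for 10 min at room temperature and then 3 min at 37 °C. Lysate was solubilised with 0.8% NP40 and benzonase, ultracentrifuged, and the supernatant analysed by TMT-labelled LC-MS/MS.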
Target,NP40-soluble protein abundance (concentration: 1mM),NP40-soluble protein abundance (concentration: 2mM),NP40-soluble protein abundance (concentration: 4mM),NP40-soluble protein abundance (concentration: 6mM),NP40-soluble protein abundance (concentration: 8mM),NP40-soluble protein abundance (concentration: 10mM)
ADAM9 (UniProt Q13443),1 ± 0.025,1.01 ± 0.044,0.993 ± 0.041,0.989 ± 0.026,0.978 ± 0.025,0.989 ± 0.042
ITK (UniProt Q08881),0.934 ± 0.029,0.827 ± 0.061,0.861 ± 0.019,0.802 ± 0.063,0.79 ± 0.072,0.754 ± 0.05
SSRP1 (UniProt Q08945),1.05 ± 0.053,1.07 ± 0.03,1.13 ± 0.045,1.35 ± 0.055,1.47 ± 0.058,1.73 ± 0.1
UniProt Q13416,1.01 ± 0.039,1.07 ± 0.021,1.06 ± 0.033,1 ± 0.036,0.982 ± 0.036,1.04 ± 0.042
UniProt Q14247 and related entries,1.097 ± 0.0082,1.14 ± 0.061,1.16 ± 0.037,1.14 ± 0.039,1.14 ± 0.038,1.18 ± 0.055
UniProt Q14498 and related entries,1.02 ± 0.027,1.03 ± 0.035,1.08 ± 0.034,1.098 ± 0.0082,1.12 ± 0.03,1.19 ± 0.021
PAK2 (UniProt Q13177),1.01 ± 0.021,0.988 ± 0.0099,0.9836 ± 0.0067,0.9679 ± 0.0052,0.9826 ± 0.0029,0.967 ± 0.033
UniProt Q15036 and related entries,1.03 ± 0.02,0.9855 ± 0.0063,1.02 ± 0.029,1 ± 0.07,1.01 ± 0.031,1.03 ± 0.048
EIF3I (UniProt Q13347),0.984 ± 0.038,0.961 ± 0.053,1.01 ± 0.056,1.11 ± 0.021,1.16 ± 0.075,1.2 ± 0.1
UniProt Q14865,1.03 ± 0.066,1.01 ± 0.051,1 ± 0.06,0.964 ± 0.075,0.942 ± 0.041,0.958 ± 0.075
RIPK1 (UniProt Q13546),0.975 ± 0.028,0.928 ± 0.093,0.954 ± 0.036,0.932 ± 0.024,0.922 ± 0.014,0.921 ± 0.016
UniProt Q15057 and related entries,1.003 ± 0.0092,0.996 ± 0.022,1.008 ± 0.0091,0.974 ± 0.021,0.969 ± 0.034,0.983 ± 0.025
PSMD2 (UniProt Q13200),0.891 ± 0.014,0.849 ± 0.068,0.854 ± 0.074,0.858 ± 0.087,0.851 ± 0.086,0.816 ± 0.12

# From the supplement of paper PMC6411743
